# Data reported in publication PMC2978108.
# Sequences of proteins named here, by UniProt entry; tags and fusion partners are left off. A change or cut given only in a name is not applied to a line headed by its entry.
# UniProt P13466: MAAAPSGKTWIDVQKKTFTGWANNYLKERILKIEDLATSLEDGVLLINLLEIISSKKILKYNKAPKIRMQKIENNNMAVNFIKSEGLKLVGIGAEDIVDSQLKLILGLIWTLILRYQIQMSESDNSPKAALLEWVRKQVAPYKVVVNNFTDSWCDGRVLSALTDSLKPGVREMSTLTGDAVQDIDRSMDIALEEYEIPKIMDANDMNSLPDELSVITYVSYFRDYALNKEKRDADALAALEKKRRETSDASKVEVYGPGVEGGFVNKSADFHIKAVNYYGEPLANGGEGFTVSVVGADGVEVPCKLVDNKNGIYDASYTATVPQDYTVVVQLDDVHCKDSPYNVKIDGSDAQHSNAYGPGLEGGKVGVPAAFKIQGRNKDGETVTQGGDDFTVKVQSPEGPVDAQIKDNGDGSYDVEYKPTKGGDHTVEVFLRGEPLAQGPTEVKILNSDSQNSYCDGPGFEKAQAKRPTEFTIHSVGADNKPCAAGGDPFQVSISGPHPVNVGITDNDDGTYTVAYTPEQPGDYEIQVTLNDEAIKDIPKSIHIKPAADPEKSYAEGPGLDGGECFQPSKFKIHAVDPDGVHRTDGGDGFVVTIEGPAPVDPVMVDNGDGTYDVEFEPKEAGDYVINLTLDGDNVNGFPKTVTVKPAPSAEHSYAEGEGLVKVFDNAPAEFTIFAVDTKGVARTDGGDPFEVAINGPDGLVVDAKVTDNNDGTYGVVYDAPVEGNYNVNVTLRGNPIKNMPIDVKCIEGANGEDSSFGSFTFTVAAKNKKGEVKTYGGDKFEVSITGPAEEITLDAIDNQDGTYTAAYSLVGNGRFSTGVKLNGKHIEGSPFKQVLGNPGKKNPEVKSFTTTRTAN
# UniProt P34147: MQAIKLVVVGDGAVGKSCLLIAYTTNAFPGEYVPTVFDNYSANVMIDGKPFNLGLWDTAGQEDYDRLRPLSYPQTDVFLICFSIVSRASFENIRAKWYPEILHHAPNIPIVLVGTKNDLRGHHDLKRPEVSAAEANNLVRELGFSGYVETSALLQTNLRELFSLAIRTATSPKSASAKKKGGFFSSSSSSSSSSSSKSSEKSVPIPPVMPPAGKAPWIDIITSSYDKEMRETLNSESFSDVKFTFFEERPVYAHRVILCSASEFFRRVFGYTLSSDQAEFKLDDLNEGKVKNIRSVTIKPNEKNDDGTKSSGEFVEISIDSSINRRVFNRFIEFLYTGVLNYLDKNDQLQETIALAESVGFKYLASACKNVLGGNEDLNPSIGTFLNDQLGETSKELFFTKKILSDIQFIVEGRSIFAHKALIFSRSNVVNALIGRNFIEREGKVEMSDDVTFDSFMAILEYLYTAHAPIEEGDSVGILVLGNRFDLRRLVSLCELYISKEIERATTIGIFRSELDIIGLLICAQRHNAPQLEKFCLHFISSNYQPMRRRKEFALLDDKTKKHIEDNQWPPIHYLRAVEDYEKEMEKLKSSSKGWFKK
# UniProt P34148: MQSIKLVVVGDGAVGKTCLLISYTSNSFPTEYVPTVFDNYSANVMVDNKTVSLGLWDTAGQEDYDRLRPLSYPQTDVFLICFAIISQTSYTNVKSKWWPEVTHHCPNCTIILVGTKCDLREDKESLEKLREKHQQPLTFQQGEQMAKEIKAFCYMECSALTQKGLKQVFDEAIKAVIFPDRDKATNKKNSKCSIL
# UniProt P34149: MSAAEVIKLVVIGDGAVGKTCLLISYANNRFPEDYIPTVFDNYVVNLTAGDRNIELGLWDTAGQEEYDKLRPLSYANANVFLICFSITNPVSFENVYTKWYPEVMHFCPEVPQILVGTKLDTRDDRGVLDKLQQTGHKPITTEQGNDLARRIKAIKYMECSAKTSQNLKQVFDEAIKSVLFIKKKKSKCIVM
# No constants are given. Whether binding was seen depends on the method and setting. For some assays here: Binding seen in cells or lysates may run through a third protein. Some binding calls cover weakened binding; strength is not graded here. For some assays here: Sequences can lack the tags named with a protein.
# B1: GFP-GAPA (full length GAPA fused to GFP at the N-terminus) (protein, UniProt O00899 1-860)
# chain: MEGLEIEDEDVILLDEDDDSSSSSTVNNSSSNIKNNGNTNNNIGNDDSNKVTLMTSLREKGWGSGMLVDKEKNQYGTIKSYKDDKSSPWFEERQVIATLYKARVLLHEMIYTKMNQERLLSGNLCVGEIQSLLNTQKEDVETDWIAEIQELKRNMVAEIRRNHLLERDVNKLDKRIALLIKHRSNIKDLLLEQNKGKKDKKKKGDDKAEYITLDQKQLESYQNLFYLLQTEPHYLAKLVTLIQADQMEDFLDTVFLTLFGDDFSPREEFLILSLFRLAIGQEMSRIKSAGDLLAVESVVPKMIITYTRRKQGHEFLKQIIAPILENNVVNAPDLNLELNAVQVYQNMISEQEIQTGAKSTLNRGLAEDQIIQLKEVQSILEPRVEKCIQICERFFTGIIQSLNRLPYGIRWICKQIQSIAQKNFDSKPDEIAKVIGYFVYYRFINLAIVTPDAFEILDKELSITSRKNLVNIAKVLQNLFTLKTFQNQGSERWMQPLNKWILSKTSIVRQYLEDLIQVTDPSEYLRVDKYNELTLKLNPVVVISLGEISQTHRLLIANLAALKMKEKEDPLELILKALPAPLEVVDENDREIQLTLINRFKENIEKEISISASLLAETKELVISVLRSIPIQQKQQQQQHDDEKRDDLISILQNAIKHGKETNNPQLSSNAEKIINNLKKMEAEGSIQSENNQYEGFIKVIALEVINRQEIREQQRKERMRLTIALRDLRKHQSYLNDQIQHYTSYLKDVLLHYGPKDKKKSTKPMKISFKELTKKGVIVESDIPKLSHGSTSFYISSDAPGIFDIEARIGVASVGTLSLSLDDLLDKSSAGIPYLKLENIVLDVNMTLHLLNRHFLKNI
# B2: Cortexillin I (endogenous, D. discoideum) (protein, UniProt Q54HG2 1-444)
# chain: MAGKDWEIVQEKAFTAWVNSVLDKRGEKISDVGKDLSDGVKLIFFLELISSKKFNKKYDFEPKARINMIQNVALALKFLDEELKIKVQGIGSEDFVDNNKKMILGFLWTLYRKYRIAVISEGDKSSEEGLLLWCKNTTTGYDGVNITSFTKSFRDGLAFLALSHKFEPESFKFQEFEAMDPIARLNAAFDFAEKGLGVPKLLEAEEVMRGTTDERSLVLYTSLFFHAYRAKEEKARLESSKNEMANRLAGLENSLESEKVSREQLIKQKDQLNSLLASLESEGAEREKRLRELEAKLDETLKNLELEKLARMELEARLAKTEKDRAILELKLAEAIDEKSKLEQQIEATRIRGAAEAQGLGLLRKNLDTHVHDLLKWQKLTMENSSSSSIDDQIIVEVSGLPFGEQVKHLATKLEAENLAIMKLLNQKEDDLKAQKLKSSKSKK
# B3: GFP-RacE (D. discoideum RacE as GFP fusion) (protein, UniProt Q23862 1-223)
# chain: MSEDQGSGATRVKLVVVGDGAVGKTCLLICYAQNDFPVDYVPTVFENYTATRKRGNEDIKVHLWDTAGQEEYDRLRPLSYPGADVVLLCFSTISQSSYEAIRDKWAPEVNHYIPDVPSILVGTKIDLREQQHPDPNSGKFEPITADMGISMQKQIKAKKYLEVSAKTRQGLEEVFSAAIEIVLESRGMDKKSQDGSSSASGVPSGDKPTKGKAGKKKSGCIIL
# B4: Cortexillin II (D. discoideum, from cell lysate) (protein, UniProt Q550R2 1-441)
# chain: MDLNKEWEKVQEMAFTSWVNSVLEKRGCDKISDVSTDLSDGVKLIYFLESVSGKKFPKKFDLEPKTRIMRVQNLHLAMLFIDEDLKIKVQGVAAEEFVDNNKKMILGFLWTLYRKYRISVINEGDKSSEEGLLAWCKKTTEGYNNVNITGFKSSFRDGHGFLALAHKYDPTVFKYDEYEGHDNIARLNAAFDFAEKGLGIPKLLEAESLSKGNVDERSIVLYTSLFFHAFRAKEEREALEASQNSLNNKLASLEQSLEGEKHSQEELVKQKKDLEDALNKIREQNDNRNSRITDLQSKIDDALRGLDDEKLAKLDLESRLAKCEKDKAILELKLAEILDEKDRLEKKIDEDKKRAEAERLGLGLIRQHLAAQFSDIHKWQSFLEHPETVPYTGTPVDLDSELSSLSFEEQAKKLASKLESENILIEKYLNGKEEAKAAAKK
# Experiments:
# [1] = biological target: T1, GST-GAPA (full length GAPA, GST fusion) (D. discoideum) (UniProt O00899); experiment: pull-down; glutathione sepharose beads coated with GST-GRD or GST-GAPA incubated with D. discoideum cell lysates at 4°C; eluates resolved by SDS-PAGE and immunoblotted; only the target purified
# T1 sequence: B1 chain
# [2] = biological target: T2, GST-GRD (GRD domain of GAPA, residues 202-557, GST fusion) (D. discoideum) (UniProt O00899); experiment: as above
# T2 sequence: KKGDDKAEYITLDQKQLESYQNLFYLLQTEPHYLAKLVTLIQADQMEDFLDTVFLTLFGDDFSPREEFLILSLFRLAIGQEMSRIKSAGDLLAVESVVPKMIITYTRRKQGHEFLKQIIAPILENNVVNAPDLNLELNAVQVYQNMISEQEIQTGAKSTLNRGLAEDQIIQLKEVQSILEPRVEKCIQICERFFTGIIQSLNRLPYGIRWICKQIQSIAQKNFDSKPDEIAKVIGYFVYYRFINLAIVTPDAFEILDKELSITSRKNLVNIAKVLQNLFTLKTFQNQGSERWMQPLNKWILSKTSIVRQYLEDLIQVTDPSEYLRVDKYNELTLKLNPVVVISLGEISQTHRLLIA
# [3] = biological target: GST fused Rac1a (D. discoideum) (D. discoideum) (UniProt P34144); experiment: pull-down; GST fused Rac1a on glutathione sepharose beads incubated with lysates of cells expressing GFP-GAPA in the presence of either 100 µM GDP or GTPγS; blot with GFP and Filamin mAbs; only the target purified
# [4] = biological target: GST fused Rac1a (D. discoideum) (D. discoideum) (UniProt P34144); experiment: pull-down; GST fused Rac1a with lysates of GAPA^- cells expressing GFP-FLN; blot with GFP mAb; only the target purified
# [5] = biological target: T2, GST-GRD (GRD domain of GAPA, residues 202-557, GST fusion) (D. discoideum); experiment: pull-down; GST-GRD bound beads incubated 3 hrs at 4°C with lysates of cells expressing Rac proteins as GFP fusions; 25 mM Tris/HCl pH 7.5, 150 mM NaCl, 5 mM EDTA, 0.5% Triton X-100, 1 mM NaF, 0.5 mM Na3VO4, 1 mM DTT; blot with GFP mAb; only the target purified
# [6] = biological target: T3, GFP-GAPA (full length GAPA fused to GFP at the N-terminus) (D. discoideum) (UniProt O00899); experiment: SEC; analytical gel filtration on Sephadex G200 (SMART system) of lysate of AX2 cells expressing GFP-GAPA; 25 mM Tris/HCl pH 7.5, 150 mM NaCl, 5 mM EDTA, 0.5% Triton-X100, 1 mM DTT; fractions blotted with GFP mAb
# T3 sequence: B1 chain
# [7] = biological target: GST fused Rac1a (D. discoideum) (D. discoideum) (UniProt P34144); experiment: pull-down; GST fused Rac1a on glutathione sepharose beads incubated with lysates of cells expressing GFP-GAPA in the presence of either 100 µM GDP or GTPγS; blot with GFP and Filamin mAbs; only the target purified; remark: listed apart in the source
# [8] = biological target: T2, GST-GRD (GRD domain of GAPA, residues 202-557, GST fusion) (D. discoideum); experiment: pull-down; glutathione sepharose beads coated with GST-GRD or GST-GAPA incubated with D. discoideum cell lysates at 4°C; eluates resolved by SDS-PAGE and immunoblotted; only the target purified; remark: listed apart in the source
# [9] = biological target: T3, GFP-GAPA (full length GAPA fused to GFP at the N-terminus) (D. discoideum); experiment: co-IP; GFP-GAPA immunoprecipitated with GFP mAb K3-184-2 from extracts of cells expressing GFP-GAPA; blot with polyclonal antibodies against Cortexillin I
molecule,measurement,setting,value
"Filamin (endogenous, D. discoideum) (from UniProt P13466 1-857)",binding,[1],binds
same,binding,[2],binds
same,binding,[3],binds
GFP-FLN (full length Filamin with GFP at the C-terminus) (from UniProt P13466 1-857),binding,[4],binds
same,binding,[2],binds
"GFP-FLN^S174A (full length Filamin mutated at position 174 in the ABD, GFP-tagged) (from UniProt P13466 1-857)",binding,[2],binds
GFP-Rac1a (D. discoideum Rac1a as GFP fusion) (from UniProt P34144 1-194),binding,[5],binds
GFP-RacA (D. discoideum RacA as GFP fusion) (from UniProt P34147 1-598),binding,[5],binds
GFP-RacB (D. discoideum RacB as GFP fusion) (from UniProt P34148 1-195),binding,[5],binds
GFP-RacC (D. discoideum RacC as GFP fusion) (from UniProt P34149 1-192),binding,[5],binds
B1,binding,[6],binds
same,binding,[7],binds
same,binding,[8],binds
B2,binding,[9],binds
same,binding,[8],binds
B3,binding,[5],binds
B4,binding,[8],no binding
